Consider 55 molecules from PubChem BioAssay AID1487 (National Center for Advancing Translational Sciences (NCATS), 2009).

This experiment can be described thus: qHTS Assay for Modulators of Lamin A Splicing. The note with it: HeLa LMNA splicing GFP/RFP minigene ratio, 48 h. The method in brief: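 S3 HeLa stable clones carrying a lamin A-EGFP splicing minigene plus DsRed2 were seeded at 600 cells/well in Opti-MEM with 2% FBS, pin-dosed and incubated 48 h at 37°C. Acumen cytometry (488 nm) gave the GFP/RFP total-intensity ratio.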
In general terms: qHTS replaces the single test concentration by a dilution series.

The mark [1] stands for this setting: measured here: RFP viability control channel.
The mark [2] stands for this setting: measured here: GFP splicing reporter channel.

The list shows a part of the results. Further columns of the screen follow, without active or inactive calls. Most of these compounds were active or inconclusive in the main read-out, so they are no random draw. Words in brackets tell the shape of the fitted curve; partial curves, single points and poor fits give uncertain potencies.

By AC50 is commonly meant the midpoint of the concentration-response curve, whichever way the signal moves. Regarding `Cc1ccc(C)c(NC(=O)c2ccccc2O)c1`, the AC50 under setting [1] is 17.8 µM [rising, partial curve, poor fit].
Same read-out and setting: next, `Cc1nnc(SCc2ccc(C(=O)c3ccc(Cl)cc3)o2)n1-c1ccccc1`: 12.6 µM [rising, single point]; `Cc1ccc(NC(=O)c2ccc(OCC3CCCO3)cc2)cc1` (configuration not stated): 15.8 µM [rising, single point].
For the molecule `Cc1ncc([N+](=O)[O-])n1Cc1cccc2ccccc12`, the AC50 under setting [2] is 10 µM [rising, single point].
As for `C/C(=N\NC(=O)c1nn(C)cc1Br)c1ccc(NC(=O)c2ccncc2)cc1`, the AC50 reads like this: under setting [2], 12.6 µM [rising, partial curve]; under setting [1], 8.91 µM [rising, partial curve, poor fit].
On to `Cc1ccc(S(=O)(=O)c2cnc(SCC(=O)Nc3cc(C)cc(C)c3)nc2N)cc1`, for which the AC50 is, setting by setting: under setting [2], 0.0355 µM [falling, full curve]; under setting [1], 0.0224 µM [falling, full curve, poor fit].
Consider `CCCNC(=O)c1ccc2c(c1)C1C3CCC(C3)C1C(c1ccccc1)N2` (configuration not stated), for which the AC50 under setting [2] is 12.6 µM [rising, single point] and the AC50 under setting [1] was 22.4 µM [rising, single point].
For the molecule `Cn1c(=O)[nH]c(=O)c2[nH]c(N(Cc3ccccc3)Cc3ccccc3)nc21`, the AC50 under setting [2] is 6.31 µM [rising, partial curve].
As to `COc1ccc2nc(SCC(=O)Nc3ccc4c(c3)CCC4)[nH]c2c1`, the AC50 under setting [2] was 12.6 µM [rising, partial curve].
Consider `Cc1cccc2nc(-c3ccccc3)nc(N3CCC(O)(c4ccc(Cl)cc4)CC3)c12`, for which the AC50 runs as follows: under setting [2], 20 µM [rising, single point]; under setting [1], 25.1 µM [rising, partial curve].
In the case of `COc1ccc(Nc2ncc3nc(-c4cccs4)c(=O)n(Cc4cccc(OC)c4)c3n2)cc1`, the AC50 under setting [1] was 15.8 µM [falling, partial curve].
Consider `O=C(Nc1cc(Cl)cc(Cl)c1)c1ccc(F)c(S(=O)(=O)NC2CCCC2)c1`, for which, under setting [2], the AC50 was 3.16 µM [rising, single point].
Turning to `N#Cc1nc(-c2ccco2)oc1N1CCN(Cc2ccccc2)CC1`, the AC50 under setting [2] was 15.8 µM [rising, single point] and the AC50 under setting [1] was 22.4 µM [rising, single point].
As to `CN(C)S(=O)(=O)c1cccc(NC(=S)NC(=O)C2CCCCC2)c1`, the AC50 was 12.6 µM [rising, partial curve] under setting [2] and 22.4 µM [rising, partial curve] under setting [1].
For `CCOC(=O)c1c(C)sc2c1N(C(=O)CCl)c1cc(Cl)ccc1S2`, under setting [1], the AC50 was 11.2 µM [falling, partial curve].
As to `CCOC(=O)N1CCC(NC(=O)C2CCN(c3ccc(N4CCOCC4)nn3)CC2)CC1`, the AC50 under setting [1] was 0.398 µM [falling, full curve, poor fit].
Turning to `CCCCN1C(=O)Cc2c1nc(N)c1c(N)nc(N(CCC)CCC)c(C#N)c21`, the AC50 under setting [1] was 20 µM [rising, single point].
As to `O=C(c1ccc(F)cc1)N1CCN(c2ccc([N+](=O)[O-])c(N3CCCCC3)c2)CC1`, the half-maximal activity concentration (AC50) reads like this: under setting [2], 20 µM [rising, single point]; under setting [1], 25.1 µM [rising, single point].
Turning to `O=C(NC1CCCCC1)C(c1cccnc1)N(C(=O)CCl)c1cccc(Cl)c1` (configuration not stated), the AC50 by setting is: under setting [2], 17.8 µM [falling, single point]; under setting [1], 3.16 µM [falling, single point].
For `COc1ccc(NCC(=O)Nc2ccc(Br)cc2F)c(OC)c1`, under setting [2], the AC50 is 10 µM [rising, partial curve, poor fit].
On to `COc1ccc(Oc2coc3cc(OCC(=O)N4CCCCC4)ccc3c2=O)cc1`, for which the AC50 is, setting by setting: under setting [2], 17.8 µM [rising, partial curve, poor fit]; under setting [1], 22.4 µM [rising, single point].
Consider `CC1=CC(C)(C)Nc2ccc(OC(=O)CN3C(=O)c4cccc5cccc(c45)C3=O)cc21`, for which the AC50 was 22.4 µM [falling, single point] under setting [2] and 35.5 µM [falling, single point] under setting [1].
In the case of `Nc1nc(-c2ccccc2)cc(-c2ccccc2O)n1`, the AC50 is, setting by setting: under setting [2], 22.4 µM [falling, single point]; under setting [1], 35.5 µM [falling, single point].
With `CCCCCn1cnc2sc(CC)cc2c1=O`, the AC50 under setting [2] is 1.12 µM [rising, full curve, poor fit].
On to `Cn1nc(-c2ccc(OCC(=O)Nc3cccnc3)cc2)c2ccccc2c1=O`, for which, under setting [1], the AC50 is 15.8 µM [rising, single point].
Turning to `Cc1ccc(Nc2cc(=O)n(C3CCCCC3)c(=O)[nH]2)cc1C`, the AC50 under setting [2] is 25.1 µM [falling, partial curve, poor fit].
As for `Fc1ccccc1N1CCN(c2ncnc3[nH]ncc23)CC1`, under setting [1], the AC50 was 35.5 µM [rising, single point].
As to `Cc1cc(O)c(NC(=S)NC(=O)c2ccc(-c3ccc(Cl)cc3)o2)cc1C`, the AC50 under setting [2] was 35.5 µM [falling, single point].
`O=C(COc1ccc(Cl)cc1Br)N1CCN(c2ccccc2)CC1`: the AC50 is 11.2 µM [rising, partial curve] under setting [2] and 31.6 µM [rising, single point] under setting [1].
Turning to `Cc1cc(C(=O)OCc2nnc(-c3ccccc3)o2)c(C)n1-c1ccccc1`, the AC50 is 4.47 µM [rising, full curve] under setting [2] and 10 µM [rising, partial curve] under setting [1].
In the case of `Cc1c(-c2ccccc2)n[nH]c1C(=O)N=Nc1c(O)[nH]c2ccccc12`, the AC50 under setting [1] was 35.5 µM [falling, single point].
Take `O=c1c(-c2cc(F)cc(F)c2)nc2cnc(N3CCNCC3)nc2n1-c1ccccc1`: the AC50 was 17.8 µM [falling, single point] under setting [2] and 5.62 µM [falling, partial curve] under setting [1].
`COc1ccccc1-c1nc(NC2CC2)c2ccccc2n1`: the AC50 under setting [2] is 12.6 µM [falling, single point].
As to `CSc1cccc(-n2cc(-c3ccc4c(c3)OCO4)[nH]c2=O)c1`, the AC50 under setting [1] is 31.6 µM [rising, single point].
Same read-out and setting: next, `O=C(CSc1nnc(C2COc3ccccc3O2)o1)N1CCCc2ccccc21` (configuration not stated): 25.1 µM [rising, single point].
With `CN=c1sc2ccccc2n1CC(O)COc1ccccc1` (configuration not stated), the AC50 under setting [1] was 17.8 µM [rising, partial curve].
Regarding `CC(C)CN(CC(C)C)C(=O)CC(=O)NC(=O)c1ccc(Cl)cc1`, the AC50 under setting [2] is 35.5 µM [rising, single point] and the AC50 under setting [1] was 31.6 µM [rising, single point].
As for `O=C(CN1C(=O)NC(Cc2c[nH]c3ccccc23)C1=O)Nc1cccc(S(=O)(=O)N2CCCCCC2)c1` (configuration not stated), the AC50 under setting [1] is 20 µM [rising, partial curve].
`Cn1c(SCC(=O)N2CCCc3ccccc32)ncc(C(=O)Nc2ccc(Cl)cc2)c1=O`: the AC50 was 0.0224 µM [falling, full curve, poor fit] under setting [2] and 2.24 µM [falling, partial curve, poor fit] under setting [1].
`O=S(=O)(Nc1nc2ccccc2nc1Nc1cccc(S(=O)(=O)N2CCCCC2)c1)c1ccccc1`: the AC50 was 5.01 µM [rising, partial curve] under setting [2] and 3.16 µM [rising, full curve] under setting [1].
Regarding `Cc1ncc(CO)c(/C=N/NC(=O)c2ccc(Br)cc2)c1O`, the AC50 under setting [1] was 11.2 µM [rising, partial curve, poor fit].
With `COc1ccc(S(=O)(=O)N(Cc2ccc(OC)c(OC)c2)Cc2ccco2)cc1`, the half-maximal activity concentration (AC50) by setting is: under setting [2], 15.8 µM [rising, partial curve, poor fit]; under setting [1], 17.8 µM [rising, partial curve].
As to `Cc1ccc2nc(N/N=C/c3ccco3)cc(C)c2c1`, the AC50 under setting [1] is 31.6 µM [rising, single point].
As to `Cc1ccccc1C(=O)c1c[nH]c(C(=O)NCc2cccs2)c1`, under setting [2], the AC50 is 1.26 µM [falling, full curve, poor fit].
Turning to `C/C(N)=C(/C#N)C(=O)COC(=O)c1cc(C)n(-c2ccc(F)cc2)c1C`, the AC50 under setting [1] is 12.6 µM [rising, single point].
On to `COCCNC(=S)N/N=C/c1ccc(OCc2ccc(C(=O)OC)cc2)c(OC)c1`, for which, under setting [1], the AC50 was 2.51 µM [falling, single point].
On the same count and under the same terms, next, `CSc1nc(-c2ccc(Cl)cc2)c(C#N)c(=O)[nH]1`: 0.0251 µM [rising, full curve, poor fit].
Turning to `Cc1ccc(SCCOCCN2CCc3ccccc3C2)cc1`, the AC50 is 17.8 µM [rising, single point] under setting [2] and 17.8 µM [rising, single point] under setting [1].
For `Cc1nc(-c2ccncc2)sc1C(=O)Nc1ccc(Cl)cc1`, the AC50 under setting [2] is 0.0708 µM [rising, partial curve, poor fit].
`CCCCNS(=O)(=O)c1ccc2nc(NC(=O)c3cccnc3)sc2c1`: the AC50 under setting [2] is 0.708 µM [rising, partial curve].
`CCN(CC)c1ccc(NC(=O)c2cnn(CC)c2)cc1`: the AC50 was 3.98 µM [falling, single point] under setting [2] and 3.55 µM [falling, single point] under setting [1].
Consider `CCOC(=O)c1ccccc1NC(=O)Cn1c(-c2nonc2N)nc2ccccc21`, for which the AC50 by setting is: under setting [2], 2.82 µM [rising, full curve]; under setting [1], 1.78 µM [rising, full curve].
As for `CCN1C(=O)c2cccc3c(S(=O)(=O)N(C(=O)c4ccncc4)c4ccc(OC)cc4)ccc1c23`, the AC50 under setting [1] is 20 µM [rising, single point].
As to `O=C(Nc1nnc(-c2ccccc2Cl)o1)c1cc2cc([N+](=O)[O-])ccc2s1`, the AC50 is, setting by setting: under setting [2], 35.5 µM [rising, single point]; under setting [1], 35.5 µM [rising, single point].
As to `Cc1ccc(-c2nn(-c3ccccc3)cc2/C=N/NC(=O)c2ccc(Br)o2)cc1`, the AC50 under setting [1] is 7.94 µM [falling, partial curve, poor fit].
